Source: paper PMC3397530
These are yes or no findings as the source states them, for the method shown.

Target: hypothetical protein CV_2116 from Chromobacterium violaceum (Chromobacterium violaceum) (UniProt Q7NW74)
Experiment: NMR 15N T1/T2 relaxation (rotational correlation time); 1D 15N-edited T1 and T2 experiments of the NC sample, 600 MHz, 298 K; tau-c 6.2 ± 0.5 ns compared with a curve of molecular weight versus tau-c of known monomeric proteins; NMR buffer 10 mM Tris pH 7.0, 300 mM NaCl, 10 mM DTT; both purified

B1: hypothetical protein CV_2116 from Chromobacterium violaceum (protein, UniProt Q7NW74 1-82)
chain: MNVAHYRGYEIEPGHQYRDDIRKYVPYALIRKVGVPDRTPIPATYPEFYDLEADAERVSIACAKIIIDSHLDRHDQGLADLG
  binding: no binding
